Measured values: article PMC8828655
Results are given in words; binding and its absence hold for the method and conditions named. Binding seen in cells or lysates may run through a third protein. Some results given as binding are weak or reduced against the parent protein; the word gives no strength. For some assays here: Tags and fused reporters may be left off the sequences shown.

By UniProt entry, the sequences of proteins in these tests, tags left out. Residues count along the entry.
UniProt Q9NZQ7, residues 19-290: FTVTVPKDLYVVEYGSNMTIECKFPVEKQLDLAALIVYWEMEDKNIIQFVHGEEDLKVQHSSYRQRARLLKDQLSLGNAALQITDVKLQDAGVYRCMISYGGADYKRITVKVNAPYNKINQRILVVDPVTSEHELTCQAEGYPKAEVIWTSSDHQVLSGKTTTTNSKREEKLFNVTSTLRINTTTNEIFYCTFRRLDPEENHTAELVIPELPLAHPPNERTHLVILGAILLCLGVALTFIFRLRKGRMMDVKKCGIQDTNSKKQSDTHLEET

Experiments:
HA-Siah2 = target: T1, HA-Siah2 (UniProt O43255); assay: co-IP; CCA cells transfected with HA-Siah2 and Flag-PD-L1 for 36 h; immunoprecipitation with anti-HA, analysed by immunoblotting
T1 sequence: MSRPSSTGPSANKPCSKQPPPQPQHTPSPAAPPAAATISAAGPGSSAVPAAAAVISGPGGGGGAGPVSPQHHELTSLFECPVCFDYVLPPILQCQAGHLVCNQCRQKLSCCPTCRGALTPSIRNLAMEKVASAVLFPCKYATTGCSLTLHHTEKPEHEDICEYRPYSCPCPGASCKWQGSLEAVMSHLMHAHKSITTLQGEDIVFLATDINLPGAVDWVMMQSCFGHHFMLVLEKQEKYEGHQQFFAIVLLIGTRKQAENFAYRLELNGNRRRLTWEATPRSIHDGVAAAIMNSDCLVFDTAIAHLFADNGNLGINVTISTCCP

[1] = target: T2, seven in absentia homolog 2 (Siah2), endogenous (human (endogenous in CCA cells)) (UniProt O43255); assay: co-IP; immunoprecipitation with anti-Siah2 from CCA cells, analysed by immunoblotting; the text calls it endogenous
T2 sequence: T1 sequence

| Substance | binding (HA-Siah2) | binding [1] |
| --- | --- | --- |
| Flag-PD-L1 (from UniProt Q9NZQ7 19-290) | binds |  |
| Programmed death ligand 1 (PD-L1), endogenous (from UniProt Q9NZQ7 19-290) |  | binds |
